Measurements reported in PubChem BioAssay AID1671190 (National Center for Advancing Translational Sciences (NCATS), 2021).
Screen size: about 580,000 compounds; about 6,100 (1.1%) were called active. The shares of active, inactive and inconclusive entries below differ from those in the screen. Calls come from the whole dose curve; as a rule, active = well fitted inhibition curve with a large enough effect; inconclusive = small, poorly fitted or top-dose-only effect, or another doubt; inactive = no such curve, though single readings can be large or run the other way. Where the call is inconclusive, the potency comes from a doubtful curve fit.

Protein sequences, listed by entry. Tags and fused reporters are not part of them.
UniProt P18054, whole entry, looked up: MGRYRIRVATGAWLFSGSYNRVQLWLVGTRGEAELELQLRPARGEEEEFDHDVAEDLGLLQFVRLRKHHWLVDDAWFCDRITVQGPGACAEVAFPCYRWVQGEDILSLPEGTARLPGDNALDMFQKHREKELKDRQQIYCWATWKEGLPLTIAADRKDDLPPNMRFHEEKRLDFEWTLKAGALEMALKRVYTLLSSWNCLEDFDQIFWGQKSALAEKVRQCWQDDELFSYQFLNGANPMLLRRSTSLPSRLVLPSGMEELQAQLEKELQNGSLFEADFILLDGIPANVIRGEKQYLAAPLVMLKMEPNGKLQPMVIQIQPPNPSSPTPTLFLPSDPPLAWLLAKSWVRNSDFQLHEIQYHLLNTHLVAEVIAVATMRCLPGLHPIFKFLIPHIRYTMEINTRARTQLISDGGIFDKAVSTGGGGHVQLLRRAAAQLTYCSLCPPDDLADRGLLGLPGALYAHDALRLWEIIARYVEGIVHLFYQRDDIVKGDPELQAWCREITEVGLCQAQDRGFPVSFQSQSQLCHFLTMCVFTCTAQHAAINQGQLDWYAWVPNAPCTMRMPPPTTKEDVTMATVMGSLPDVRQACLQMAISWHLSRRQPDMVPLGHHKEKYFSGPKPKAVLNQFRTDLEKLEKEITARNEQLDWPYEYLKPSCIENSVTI

molecular target: Polyunsaturated fatty acid lipoxygenase ALOX12 (Homo sapiens) (UniProt P18054); experiment: Primary qHTS assay for inhibitors of human arachidonate 12S-lipoxygenase (ALOX12): Round 2; details: purified 12hLO, xylenol orange hydroperoxide absorbance; activity change, negative = inhibition: at 108 µM (top of the series) unless noted
Outline: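 Hydroperoxide product was detected by ferrous iron/xylenol orange as the 573 to 405 nm absorbance ratio. Arachidonic acid at 40 uM (final) was turned over for 30 min at room temperature by 150 nM human 12hLO, pH 7.0 Hepes buffer, after 15 min compound preincubation.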
% is set by controls: 0 for no effect and ±100 for the full control effect; potency is the fitted concentration of half-maximal effect.

Structure (SMILES)	Potency	activity change, negative = inhibition
O=c1cc(-c2ccccc2)nc(N2CCN(Cc3ccccc3)CC2)[nH]1	inconclusive: 100 µM [inhibitor, single point]	–
CC(C)(C)OC(=O)N/N=C/c1ccc(Cl)c(Cl)c1	inconclusive: 112 µM [inhibitor, single point]	–
CCn1nccc1C(=O)N1CCCC(c2nn[nH]n2)C1 (stereo not given)	–	inactive: -2.21%
O=S(=O)(c1ccc(F)cc1)N1CCN(Cc2cccc3cccnc23)CC1	inconclusive: 31.6 µM [inhibitor, single point]	–
COc1ccc(C)cc1C(C)NC(=O)CC1Sc2ccccc2NC1=O (stereo not given)	inconclusive: 39.8 µM [inhibitor, partial curve]	–
CCN(CC)CCNC(=O)c1cc2c(-c3cccc(OC)c3)nn(C)c2s1	inconclusive: 8.91 µM [inhibitor, full curve, poor fit]	–
CC[C@H](C)/C=C(C)/C=C/c1cc2c(cn1)C(=O)[C@@](C)(OC(C)=O)C(O)=C2Cl	inconclusive: 56.2 µM [inhibitor, partial curve, poor fit]	–
CN(C)c1ccc(C(=O)N/N=C/c2ccc(Br)s2)cc1	active: 20 µM	–
CSC1=N/C(=C\c2ccc(I)o2)C(=O)S1	active: 5.62 µM	–
CCOC(=O)C1=C(SCC)c2cc3c(n2C1=O)CCCC3	inconclusive: 15.8 µM [inhibitor, partial curve]	–
O=C(NNC(=S)Nc1cccc(Cl)c1)c1ccccc1OC(F)F	inconclusive: 8.91 µM [inhibitor, full curve, poor fit]	–
Cc1cc(C)c2oc(-c3ccc(C)c(NC(=S)NC(=O)/C=C/c4ccco4)c3)nc2c1	inconclusive: 11.2 µM [inhibitor, partial curve, poor fit]	–
CCc1ccc(-c2nc(CS(=O)CC(=O)NCc3ccco3)c(C)o2)cc1 (stereo not given)	inconclusive: 8.91 µM [inhibitor, partial curve, poor fit]	–
COc1cccc(C2CC(=O)Nc3nc(N)sc32)c1OCC(C)C (stereo not given)	inconclusive: 3.55 µM [inhibitor, partial curve, poor fit]	–
COc1cc(/C=C/C(=O)O)ccc1OCc1ccc([N+](=O)[O-])cc1	inconclusive: 89.1 µM [inhibitor, partial curve, poor fit]	–
CCC(C)NC(=O)Cn1cnc2sc(C)c(S(=O)(=O)N3CCN(c4ccccc4OC)CC3)c2c1=O (stereo not given)	inconclusive: 2.24 µM [inhibitor, full curve, poor fit]	–
CCOC(=O)C1CCCCN1Cc1cccc(C(F)(F)F)c1 (stereo not given)	inconclusive: 4.47 µM [inhibitor, full curve, poor fit]	–
CC1CCC(N(C)C(=O)CCc2c[nH]c3ccccc23)CC1 (stereo not given)	inconclusive: 44.7 µM [inhibitor, partial curve, poor fit]	–
Cc1ccc(CNC(=O)NCCc2ncc(C)n2Cc2ccc(F)cc2)cc1	–	inactive: 53%
N#C/C(=C\c1ccc(O)c(O)c1)S(=O)(=O)c1ccccc1	active: 3.16 µM	–
Cc1ccc(CCNC(=O)CN2N=C(c3ccc(C)cc3)CCC2=O)cc1	inconclusive: 56.2 µM [inhibitor, partial curve, poor fit]	–
CCCN=C1N(CC)C[C@@H]2[C@@H]3C(=O)N(Cc4ccccc4)C(=O)[C@@H]3[C@](C)(C(=O)OC)N12	inconclusive: 158 µM [inhibitor, single point]	–

Reprinted at random: 5 entries already listed, in no set order.
Structure (SMILES)	Potency	activity change, negative = inhibition
Cc1ccc(CCNC(=O)CN2N=C(c3ccc(C)cc3)CCC2=O)cc1	inconclusive: 56.2 µM [inhibitor, partial curve, poor fit]	–
CCN(CC)CCNC(=O)c1cc2c(-c3cccc(OC)c3)nn(C)c2s1	inconclusive: 8.91 µM [inhibitor, full curve, poor fit]	–
CCn1nccc1C(=O)N1CCCC(c2nn[nH]n2)C1 (stereo not given)	–	inactive: -2.21%
CCc1ccc(-c2nc(CS(=O)CC(=O)NCc3ccco3)c(C)o2)cc1 (stereo not given)	inconclusive: 8.91 µM [inhibitor, partial curve, poor fit]	–
Cc1cc(C)c2oc(-c3ccc(C)c(NC(=S)NC(=O)/C=C/c4ccco4)c3)nc2c1	inconclusive: 11.2 µM [inhibitor, partial curve, poor fit]	–

Next part:

Structure (SMILES)	Potency	activity change, negative = inhibition
COc1cccc(C(c2c(N)[nH]c(=S)[nH]c2=O)c2c(N)[nH]c(=S)[nH]c2=O)c1	inconclusive: 4.47 µM [inhibitor, full curve, poor fit]	–
CC(C(=O)N(C)C)N1CCc2onc(C(c3ccccc3)c3ccccc3)c2C1 (stereo not given)	–	inactive: 7.23%
Cc1ccc(CSc2nnc3c(n2)OC2(Nc4ccccc4-3)C(=O)Nc3ccc(F)cc32)cc1 (stereo not given)	inconclusive: 17.8 µM [inhibitor, partial curve, poor fit]	–
COc1ccc(C(=O)c2c(N)c(C(=O)Nc3ccccc3)c3ccccn23)cc1	–	inactive: 23.6%
O=C(NNC(=O)C12CC3CC(CC(C3)C1)C2)c1cccc(O)c1	–	inactive: -1.06%
CC(C)(C)C(=O)N1CCN(c2ccc([N+](=O)[O-])c(-n3nc(-c4ccccc4)c4ccccc4c3=O)c2)CC1	inconclusive: 3.55 µM [inhibitor, full curve, poor fit]	–
COCc1ccc(C(=O)N2CCCC(N3CCN(c4cccc(Cl)c4)CC3)C2)s1 (stereo not given)	inconclusive: 112 µM [inhibitor, partial curve, poor fit]	–
Cc1ccccc1C(=O)Nc1sc(C)c(C)c1C#N	inconclusive: 11.2 µM [inhibitor, partial curve, poor fit]	–
COc1ccc(CN2CCN(C(=O)c3ccc(S(=O)(=O)N4CCCCCC4)cc3)CC2)cc1F	inconclusive: 100 µM [inhibitor, single point]	–
CCN(CC)c1ccc(NC(=O)c2ccc(=O)[nH]c2)cc1S(=O)(=O)Nc1ccc(OC)cc1	inconclusive: 44.7 µM [inhibitor, partial curve, poor fit]	–
CCCC(=O)N1CCC2(CC1)N(c1ccccc1)C(=O)CS2(=O)=O	–	inactive: 5.82%
CC(=O)NC(CCCNC(=S)NC1CCCCC1)C(=O)O (stereo not given)	inconclusive: 39.8 µM [inhibitor, partial curve, poor fit]	–
COC(=O)c1ccc(C(=O)OC)c(NC(=O)CN2CCN(c3ccccc3)CC2)c1	–	inactive: -7.93%
CC(=O)Oc1c(C)c(OC(C)=O)c2c(c1C(C)=O)OC1CC(=O)C(C(C)=O)=C(O)C21C (stereo not given)	active: 28.2 µM	–
C/C(CC1(O)C(=O)Nc2ccccc21)=N/O (stereo not given)	inconclusive: 56.2 µM [inhibitor, partial curve, poor fit]	–
CCN1CCN(Cc2ccc(NC(=O)c3ccc(C)c(NC(=O)c4nccn4C)c3)cc2C(F)(F)F)CC1	–	inactive: -0.282%
CNS(=O)(=O)c1cccc(C(=O)OCC(=O)c2ccc3c(c2)OCCO3)c1	–	inactive: -21.8%
O=C(CSc1ccc(Cl)cc1)NC1=NN(c2ccccc2)C(=O)C1	inconclusive: 39.8 µM [inhibitor, partial curve, poor fit]	–
CCN1CCN(CC(=O)c2c[nH]c3ccc(C)cc23)CC1	inconclusive: 126 µM [inhibitor, partial curve, poor fit]	–
CCOC(=O)[C@]12CCC=C1N(Cc1ccc3c(c1)OCO3)C(=O)[C@H](CC(=O)NCc1cccc(C(F)(F)F)c1)C2	–	inactive: -9.56%
O=C(NC(=S)Nc1ccc(Cl)cc1)c1ccccc1	active: 44.7 µM	–
COc1ccc(C(C)NC(=S)NCc2ccc(F)cc2)cc1 (stereo not given)	inconclusive: 56.2 µM [inhibitor, partial curve, poor fit]	–

Structure (SMILES)	Potency	activity change, negative = inhibition
COc1ccccc1N(C)C(=O)C1CCN(c2nc3ccccc3o2)CC1	–	inactive: -4.42%
COc1ccc(Cl)cc1-n1c(CCC(=O)O)ccc1-c1ccc(C)cc1	inconclusive: 158 µM [inhibitor, single point]	–
O=C(N[C@H]1C[C@H]2C(=O)NC[C@@H](CCC(=O)N3CCc4ccccc43)N2C1)c1ccc(F)c(Cl)c1	inconclusive: 39.8 µM [inhibitor, partial curve]	–
O=C(CC1N=C2c3ccccc3N=C(SCc3ccccc3Cl)N2C1=O)NC1CCCCC1 (stereo not given)	inconclusive: 89.1 µM [inhibitor, partial curve, poor fit]	–
CCCCNc1nc(-c2c(N)n(CCC)c(=O)n(C)c2=O)cs1	–	inactive: -45.8%
CN(Cc1ccc(-c2ccc(Cl)cc2)o1)C(=O)CSc1nnc(C2CC2)n1CCC(N)=O	inconclusive: 89.1 µM [inhibitor, single point]	–
COc1ccc(C(=O)NC=C2C(=O)OC(C)(C)OC2=O)cc1	–	inactive: -9.04%
C#CCN(CC(=O)OCC)S(=O)(=O)CCNC1CC1	inconclusive: 112 µM [inhibitor, single point]	–
CC1(C(=O)NC(=S)N(Cc2ccccc2)c2ccccn2)CC1(Cl)Cl (stereo not given)	inconclusive: 7.08 µM [inhibitor, full curve]	–
Cc1ccc2occ(-c3nn[nH]n3)c(=O)c2c1	inconclusive: 22.4 µM [inhibitor, partial curve]	–
CCOc1cc(CNC(C)(C)CO)cc(Br)c1OCc1ccc(Cl)cc1Cl	inconclusive: 50.1 µM [inhibitor, partial curve, poor fit]	–
CN(C)c1nc(-c2ccccc2)nc2c1CCN(C(=O)C1CC13CCC3)C2 (stereo not given)	–	inactive: 45.8%
Cc1ccc(C(=O)Nc2cccc(C(F)(F)F)c2)cc1Nc1ccccn1	inconclusive: 89.1 µM [inhibitor, partial curve, poor fit]	–
C=CCC1(O)CC(c2ccco2)NC(c2ccco2)C1CCC (stereo not given)	inconclusive: 3.98 µM [inhibitor, full curve, poor fit]	–
CCOc1ccc2oc(-c3ccccc3)c(C(=O)N3CCN(CCO)CC3)c2c1	–	inactive: -2.47%
COc1ccc(-c2nc(Nc3ccc(Cl)cc3)sc2C)cc1	–	inactive: -29.8%
CCN(Cc1ccc2c(c1)OCO2)C(=O)CSc1ncnc2sccc12	inconclusive: 50.1 µM [inhibitor, single point]	–
NC(=O)NC(=O)COC(=O)CNS(=O)(=O)c1ccc(F)c(F)c1F	inconclusive: 112 µM [inhibitor, single point]	–
O=C(Nc1cc(Cl)ccc1C(=O)O)c1ccc(CN2C(=O)c3ccccc3C2=O)cc1	inconclusive: 56.2 µM [inhibitor, partial curve, poor fit]	–
NC(N)=N/N=C\c1ccccc1	inconclusive: 28.2 µM [inhibitor, single point]	–
CC(=O)c1cccc(NC(=O)C(C)Oc2ccc3c(C)cc(=O)oc3c2)c1 (stereo not given)	–	inactive: 12%
